In PubChem BioAssay AID256 (DTP/NCI, 2004):
The list does not hold the whole screen: it is rich in T/C values a quarter to a half above the control, in often repeated tests (any T/C) and in doses without a T/C. Further doses and runs are listed elsewhere. T/C gives the treated animals as a percentage of the vehicle group. Some doses have a count of surviving animals in place of a T/C: the source holds a T/C of zero for them, seemingly a mark for toxic or unscored doses. Some survivor counts are full or nearly so, which does not show that the dose was tolerated: the source hardly ever lists a survival T/C far under the control, and the zero likely stands for such cases as well. Survivors were counted at the toxicity check, usually on the fifth day, unless a day is given; later deaths do not show. Schedule codes are those of the source, read here as Q, the interval in days (D) or hours (H), X, the number of doses. Some entries were tested several times; their values stand side by side, smallest first. Where survival is the endpoint, this PubChem deposit counts one and a half times the control or more as active, and values a quarter to a half above the control carry no call in these data; other NCI protocols may use other cut-offs. Some T/C values are followed by the survivors on the day toxicity was checked, most often the fifth; where none is given, no animal had died by that day.

Tested on: CD2F1 mice, L1210 leukemia ip, survival T/C
Experiment: NCI In Vivo Anticancer Drug Screen. Data for tumor model L1210 Leukemia (intraperitoneal) in CD2F1 (CDF1) mice
Settings: higher T/C = longer survival
Procedure, shortened: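 Vehicle-treated tumor-bearing mice served as controls (C) for compound-treated mice (T). Reported figure is T divided by C.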

[1] = T/C endpoint: mean survival time, dose: 0.5 mg/kg/injection, schedule: Q01DX009 (ip), vehicle: saline
[2] = T/C endpoint: mean survival time, dose: 100.0 mg/kg/injection, schedule: Q01DX001 (ip), vehicle: saline with Tween-80
[3] = T/C endpoint: mean survival time, dose: 200.0 mg/kg/injection, schedule: Q01DX001 (ip), vehicle: saline with Tween-80
[4] = T/C endpoint: mean survival time, dose: 400.0 mg/kg/injection, schedule: Q01DX001 (ip), vehicle: saline with Tween-80
[5] = T/C endpoint: mean survival time, dose: 400.0 mg/kg/injection, schedule: Q04DX003 (ip), vehicle: saline with Tween-80

Structure (SMILES): CCC(=O)OCC(=O)[C@]1(O)Cc2c(O)c3c(c(O)c2[C@@H](OC2CC(N)C(O)C(C)O2)C1)C(=O)c1c(OC)cccc1C3=O (some centres not stated)
- T/C [1]: 125 % of control
- T/C (T/C endpoint: mean survival time, dose: 0.5 mg/kg/injection, schedule: Q04DX003 (ip), vehicle: saline with Tween-80): 139 % of control
- T/C (T/C endpoint: mean survival time, dose: 0.66 mg/kg/injection, schedule: Q04DX003 (ip), vehicle: saline sonified): 144 % of control
- T/C (T/C endpoint: mean survival time, dose: 1.0 mg/kg/injection, schedule: Q01DX009 (ip), vehicle: saline, evaluated on day 20): 136 % of control
- T/C (T/C endpoint: mean survival time, dose: 1.0 mg/kg/injection, schedule: Q01DX009 (ip), vehicle: saline, evaluated on day 60): 135 % of control
- T/C (T/C endpoint: mean survival time, dose: 1.0 mg/kg/injection, schedule: Q04DX003 (ip), vehicle: saline sonified): 141 % of control
- T/C (T/C endpoint: mean survival time, dose: 1.0 mg/kg/injection, schedule: Q04DX003 (ip), vehicle: saline with Tween-80): 139 % of control
- T/C (T/C endpoint: mean survival time, dose: 1.25 mg/kg/injection, schedule: Q04DX003 (ip), vehicle: saline): 133 % of control
- T/C (T/C endpoint: mean survival time, dose: 2.0 mg/kg/injection, schedule: Q01DX009 (ip), vehicle: saline): 147 % of control
- T/C (T/C endpoint: mean survival time, dose: 2.5 mg/kg/injection, schedule: Q01DX001 (ip), vehicle: saline): 129 % of control
- T/C (T/C endpoint: mean survival time, dose: 2.5 mg/kg/injection, schedule: Q04DX003 (ip), vehicle: saline): 137 % of control
- T/C (T/C endpoint: mean survival time, dose: 4.0 mg/kg/injection, schedule: Q01DX009 (ip), vehicle: saline): 127 % of control
- T/C (T/C endpoint: mean survival time, dose: 5.0 mg/kg/injection, schedule: Q01DX001 (ip), vehicle: saline): 142 % of control
- T/C (T/C endpoint: mean survival time, dose: 5.0 mg/kg/injection, schedule: Q04DX003 (ip), vehicle: saline): 148 % of control
- T/C (T/C endpoint: mean survival time, dose: 10.0 mg/kg/injection, schedule: Q01DX001 (ip), vehicle: saline): 136 % of control
- T/C (T/C endpoint: mean survival time, dose: 10.0 mg/kg/injection, schedule: Q04DX003 (ip), vehicle: saline): 128 % of control
- survivor count (T/C endpoint: mean survival time, dose: 20.0 mg/kg/injection, schedule: Q01DX001 (ip), vehicle: saline): 6 of 10
- survivor count (T/C endpoint: mean survival time, dose: 20.0 mg/kg/injection, schedule: Q04DX003 (ip), vehicle: saline): 6 of 10
- survivor count (T/C endpoint: mean survival time, dose: 40.0 mg/kg/injection, schedule: Q01DX001 (ip), vehicle: saline): 0 of 10

Structure (SMILES): COC(=O)c1cccc(C)c1O
- survivor count (T/C endpoint: mean survival time, dose: 400.0 mg/kg/injection, schedule: Q01DX009 (ip), vehicle: saline with Tween-80): 0 of 6

Structure (SMILES): CCOC(=O)C1(C#N)C(=O)CSC1=Nc1ccccc1Cl (configuration not stated)
- survivor count (T/C endpoint: mean survival time, dose: 200.0 mg/kg/injection, schedule: Q01DX009 (ip), vehicle: saline with Tween-80): 3 of 3

Structure (SMILES): C/C(=N/N(C)C)c1ccc2ccccc2c1
- survivor count (T/C endpoint: mean survival time, dose: 50.0 mg/kg/injection, schedule: Q01DX009 (ip), vehicle: saline with Tween-80): 1 of 6
- survivor count [2]: 1 of 6
- survivor count [3]: 0 of 6
- survivor count [4]: 0 of 6

Structure (SMILES): Cn1c(CC#N)c(C[N+](C)(C)C)c2ccccc21
- survivor count (T/C endpoint: mean survival time, dose: 10.0 mg/kg/injection, schedule: Q01DX009 (ip), vehicle: saline with Tween-80): 0 of 6
- survivor count (T/C endpoint: mean survival time, dose: 20.0 mg/kg/injection, schedule: Q01DX001 (ip), vehicle: saline with Tween-80): 0 of 6
- survivor count [2]: 0 of 6
- survivor count [3]: 0 of 6
- survivor count [4]: 0 of 6

Structure (SMILES): CC(C)C[P+](c1ccccc1)(c1ccccc1)c1ccccc1
- survivor count (T/C endpoint: mean survival time, dose: 150.0 mg/kg/injection, schedule: Q01DX001 (ip), vehicle: other): 2 of 6
- survivor count (T/C endpoint: mean survival time, dose: 300.0 mg/kg/injection, schedule: Q01DX001 (ip), vehicle: other): 0 of 6

Structure (SMILES): CCOC(=O)C1(C(=O)OCC)CCC(O)N1C(=O)Cc1ccccc1[N+](=O)[O-] (configuration not stated)
- T/C (T/C endpoint: mean survival time, dose: 50.0 mg/kg/injection, schedule: Q01DX009 (ip), vehicle: Klucel (hydroxypropylcellulose) (HPC)): 129 % of control [2 of 3 alive]

Structure (SMILES): OCC1OC(n2cc(I)c3c2ncn2ccnc32)C(O)C1O (configuration not stated)
- survivor count (T/C endpoint: mean survival time, dose: 25.0 mg/kg/injection, schedule: Q01DX005 (ip), vehicle: water): 1 of 6
- survivor count (T/C endpoint: mean survival time, dose: 50.0 mg/kg/injection, schedule: Q01DX005 (ip), vehicle: water): 0 of 4
- survivor count (T/C endpoint: mean survival time, dose: 100.0 mg/kg/injection, schedule: Q01DX005 (ip), vehicle: water): 0 of 4
- survivor count (T/C endpoint: mean survival time, dose: 200.0 mg/kg/injection, schedule: Q01DX005 (ip), vehicle: water): 0 of 4

Structure (SMILES): Cc1ccc(O)c(N)c1
- survivor count [5]: 1 of 6

Structure (SMILES): C/C=C1\C(=O)O[C@@]23C=C[C@H]4C(C(=O)OC)=CO[C@@H](O[C@H]12)[C@H]43
- survivor count (T/C endpoint: mean survival time, dose: 100.0 mg/kg/injection, schedule: Q01DX001 (ip), vehicle: saline): 0 of 6
- survivor count (T/C endpoint: mean survival time, dose: 200.0 mg/kg/injection, schedule: Q01DX001 (ip), vehicle: saline): 0 of 6

Structure (SMILES): CCCCCCCCCC(=O)N(C)C
- survivor count (T/C endpoint: mean survival time, dose: 300.0 mg/kg/injection, schedule: Q01DX001 (ip), vehicle: saline): 2 of 6

Structure (SMILES): O=C(O)c1cc(C(=O)O)c(C(=O)O)cc1C(=O)O.[NH2-].[NH2-].[NH2-].[NH2-].[Pt+2].[Pt+2]
- T/C (T/C endpoint: mean survival time, dose: 0.78 mg/kg/injection, schedule: Q04DX003 (ip), vehicle: water): 128 and 131 % of control
- survivor count (T/C endpoint: mean survival time, dose: 3.12 mg/kg/injection, schedule: Q04DX003 (ip), vehicle: distilled water + Tween-80): 6 of 6
- survivor count (T/C endpoint: mean survival time, dose: 6.25 mg/kg/injection, schedule: Q04DX003 (ip), vehicle: distilled water + Tween-80): 6 of 6
- survivor count (T/C endpoint: mean survival time, dose: 12.5 mg/kg/injection, schedule: Q04DX003 (ip), vehicle: distilled water + Tween-80): 0 of 6
- survivor count (T/C endpoint: mean survival time, dose: 25.0 mg/kg/injection, schedule: Q04DX003 (ip), vehicle: distilled water + Tween-80): 0 of 6
- survivor count (T/C endpoint: mean survival time, dose: 50.0 mg/kg/injection, schedule: Q04DX003 (ip), vehicle: distilled water + Tween-80): 0 of 6
- survivor count (T/C endpoint: mean survival time, dose: 100.0 mg/kg/injection, schedule: Q04DX003 (ip), vehicle: distilled water + Tween-80): 0 of 6
- survivor count (T/C endpoint: mean survival time, dose: 200.0 mg/kg/injection, schedule: Q04DX003 (ip), vehicle: distilled water + Tween-80): 0 of 6
- T/C (T/C endpoint: median survival time, dose: 16.0 mg/kg/injection, schedule: Q01DX009 (ip), vehicle: water): 125 % of control
- survivor count (T/C endpoint: median survival time, dose: 64.0 mg/kg/injection, schedule: Q01DX009 (ip), vehicle: water): 0 of 6

Structure (SMILES): CCOCc1cc(C)[nH]c(=O)c1C#N
- survivor count [5]: 2 of 6

Structure (SMILES): CCOC(=O)Nc1cc(NCCCCc2ccccc2)c([N+](=O)[O-])c(N)n1
- survivor count (T/C endpoint: mean survival time, dose: 100.0 mg/kg/injection, schedule: Q01DX001 (ip), vehicle: Klucel (hydroxypropylcellulose) (HPC)): 6 of 6
- survivor count (T/C endpoint: mean survival time, dose: 200.0 mg/kg/injection, schedule: Q01DX001 (ip), vehicle: Klucel (hydroxypropylcellulose) (HPC)): 6 of 6
- survivor count (T/C endpoint: mean survival time, dose: 400.0 mg/kg/injection, schedule: Q01DX001 (ip), vehicle: Klucel (hydroxypropylcellulose) (HPC)): 6 of 6

Structure (SMILES): COc1ccc(C(=O)/C=C/c2ccc3cc(OC)c(OC)cc3c2)cc1OC
- survivor count (T/C endpoint: mean survival time, dose: 100.0 mg/kg/injection, schedule: Q01DX009 (ip), vehicle: water): 6 of 6
- survivor count (T/C endpoint: mean survival time, dose: 200.0 mg/kg/injection, schedule: Q01DX009 (ip), vehicle: water): 6 of 6
- survivor count (T/C endpoint: mean survival time, dose: 400.0 mg/kg/injection, schedule: Q01DX009 (ip), vehicle: water): 6 of 6

Structure (SMILES): CCOC(OCC)C(=O)OCC(=O)[C@]1(O)Cc2c(O)c3c(c(O)c2[C@@H](OC2CC(N)C(O)C(C)O2)C1)C(=O)c1c(OC)cccc1C3=O (some centres not stated)
- T/C (T/C endpoint: mean survival time, dose: 0.25 mg/kg/injection, schedule: Q01DX009 (ip), vehicle: saline): 145 % of control
- T/C [1]: 132 and 144 % of control [9 of 10 alive]
- T/C (T/C endpoint: mean survival time, dose: 1.0 mg/kg/injection, schedule: Q01DX009 (ip), vehicle: saline, evaluated on day 30): 129 % of control [4 of 6 alive]
- T/C (T/C endpoint: mean survival time, dose: 1.0 mg/kg/injection, schedule: Q01DX009 (ip), vehicle: saline, evaluated on day 45): 127 % of control
- T/C (T/C endpoint: mean survival time, dose: 2.0 mg/kg/injection, schedule: Q01DX009 (ip), vehicle: saline, evaluated on day 30): 131 % of control [5 of 6 alive]
- T/C (T/C endpoint: mean survival time, dose: 2.0 mg/kg/injection, schedule: Q01DX009 (ip), vehicle: saline, evaluated on day 45): 143 % of control
- T/C (T/C endpoint: mean survival time, dose: 4.0 mg/kg/injection, schedule: Q01DX009 (ip), vehicle: saline, evaluated on day 30): 133 % of control [9 of 10 alive]
- T/C (T/C endpoint: mean survival time, dose: 4.0 mg/kg/injection, schedule: Q01DX009 (ip), vehicle: saline, evaluated on day 45): 136 % of control
- survivor count (T/C endpoint: mean survival time, dose: 8.0 mg/kg/injection, schedule: Q01DX009 (ip), vehicle: saline): 6 of 8, 9 of 10, 6 of 6
